These are yes or no findings as the source states them, for the method shown. In cells and extracts the contact can be indirect. Some binding calls cover weakened binding; strength is not graded here.
Tests used:
[1] = target: LRRC8A (leucine-rich repeat-containing protein 8, family member A), human (human) (UniProt Q8IWT6); assay: co-immunoprecipitation from transfected HEK cells
[2] = target: LRRC8A (leucine-rich repeat-containing protein 8, family member A), human (human) (UniProt Q8IWT6); assay: co-immunoprecipitation from double-transfected HEK cells, Western blot
[3] = target: GFP-LRRC8C (human LRRC8C with GFP fused to its N-terminus) (human) [GFP: P42212]; assay: co-immunoprecipitation from double-transfected HEK cells, with endogenous LRRC8A present (WT) or absent (KO)
[4] = target: GFP-LRRC8C (human LRRC8C with GFP fused to its N-terminus) (human) [GFP: P42212]; assay: co-immunoprecipitation with antibodies against the tags, LRRC8A-deficient cells
[5] = target: GFP-LRRC8E (human LRRC8E with GFP fused to its N-terminus) (human) [GFP: P42212]; assay: co-immunoprecipitation from double-transfected HEK cells, with endogenous LRRC8A present (WT) or absent (KO)
[6] = target: GFP-LRRC8E (human LRRC8E with GFP fused to its N-terminus) (human) [GFP: P42212]; assay: co-immunoprecipitation with antibodies against the tags, LRRC8A-deficient cells

The chains behind the UniProt entries cited, without tags or fusion partners.
UniProt Q8IWT6: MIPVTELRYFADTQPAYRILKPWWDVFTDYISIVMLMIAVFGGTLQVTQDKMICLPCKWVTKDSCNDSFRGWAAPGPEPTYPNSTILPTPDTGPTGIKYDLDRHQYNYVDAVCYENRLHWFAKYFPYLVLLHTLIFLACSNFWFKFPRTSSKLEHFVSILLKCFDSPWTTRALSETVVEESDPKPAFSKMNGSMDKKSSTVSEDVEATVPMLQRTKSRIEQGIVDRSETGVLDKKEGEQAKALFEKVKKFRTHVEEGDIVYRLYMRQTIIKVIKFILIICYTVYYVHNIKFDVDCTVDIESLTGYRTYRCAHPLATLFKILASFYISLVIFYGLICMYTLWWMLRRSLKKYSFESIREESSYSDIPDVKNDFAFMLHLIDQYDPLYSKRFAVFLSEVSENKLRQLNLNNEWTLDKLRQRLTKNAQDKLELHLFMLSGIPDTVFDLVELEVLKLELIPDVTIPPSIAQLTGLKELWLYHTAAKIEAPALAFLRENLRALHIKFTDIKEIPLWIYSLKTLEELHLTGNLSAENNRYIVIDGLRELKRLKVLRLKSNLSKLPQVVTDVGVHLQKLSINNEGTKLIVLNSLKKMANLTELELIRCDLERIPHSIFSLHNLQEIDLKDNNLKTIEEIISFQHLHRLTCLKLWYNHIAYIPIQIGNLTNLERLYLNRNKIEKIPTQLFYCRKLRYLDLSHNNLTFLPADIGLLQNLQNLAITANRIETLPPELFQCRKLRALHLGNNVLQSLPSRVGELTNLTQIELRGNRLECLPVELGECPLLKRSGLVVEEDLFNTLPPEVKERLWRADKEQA
UniProt Q6NSJ5: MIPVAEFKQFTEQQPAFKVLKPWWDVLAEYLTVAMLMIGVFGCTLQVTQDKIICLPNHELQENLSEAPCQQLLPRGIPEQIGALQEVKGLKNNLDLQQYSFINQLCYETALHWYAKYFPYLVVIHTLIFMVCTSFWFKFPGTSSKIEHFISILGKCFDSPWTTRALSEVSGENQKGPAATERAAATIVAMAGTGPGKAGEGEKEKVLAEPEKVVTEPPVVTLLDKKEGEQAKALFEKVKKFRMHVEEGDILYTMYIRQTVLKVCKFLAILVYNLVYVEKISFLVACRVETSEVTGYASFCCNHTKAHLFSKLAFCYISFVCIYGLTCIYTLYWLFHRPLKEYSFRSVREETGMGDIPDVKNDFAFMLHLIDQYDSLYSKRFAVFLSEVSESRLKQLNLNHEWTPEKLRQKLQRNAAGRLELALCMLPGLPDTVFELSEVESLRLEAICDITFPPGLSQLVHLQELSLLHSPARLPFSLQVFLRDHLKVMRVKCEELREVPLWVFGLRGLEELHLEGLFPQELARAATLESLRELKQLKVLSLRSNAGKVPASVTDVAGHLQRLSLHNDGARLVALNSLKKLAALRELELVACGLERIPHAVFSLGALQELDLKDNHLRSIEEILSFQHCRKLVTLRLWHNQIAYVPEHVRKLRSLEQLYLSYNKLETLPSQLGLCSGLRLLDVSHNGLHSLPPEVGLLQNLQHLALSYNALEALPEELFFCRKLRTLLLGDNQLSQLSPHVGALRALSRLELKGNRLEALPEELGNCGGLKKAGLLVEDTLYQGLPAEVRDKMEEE
UniProt Q8TDW0: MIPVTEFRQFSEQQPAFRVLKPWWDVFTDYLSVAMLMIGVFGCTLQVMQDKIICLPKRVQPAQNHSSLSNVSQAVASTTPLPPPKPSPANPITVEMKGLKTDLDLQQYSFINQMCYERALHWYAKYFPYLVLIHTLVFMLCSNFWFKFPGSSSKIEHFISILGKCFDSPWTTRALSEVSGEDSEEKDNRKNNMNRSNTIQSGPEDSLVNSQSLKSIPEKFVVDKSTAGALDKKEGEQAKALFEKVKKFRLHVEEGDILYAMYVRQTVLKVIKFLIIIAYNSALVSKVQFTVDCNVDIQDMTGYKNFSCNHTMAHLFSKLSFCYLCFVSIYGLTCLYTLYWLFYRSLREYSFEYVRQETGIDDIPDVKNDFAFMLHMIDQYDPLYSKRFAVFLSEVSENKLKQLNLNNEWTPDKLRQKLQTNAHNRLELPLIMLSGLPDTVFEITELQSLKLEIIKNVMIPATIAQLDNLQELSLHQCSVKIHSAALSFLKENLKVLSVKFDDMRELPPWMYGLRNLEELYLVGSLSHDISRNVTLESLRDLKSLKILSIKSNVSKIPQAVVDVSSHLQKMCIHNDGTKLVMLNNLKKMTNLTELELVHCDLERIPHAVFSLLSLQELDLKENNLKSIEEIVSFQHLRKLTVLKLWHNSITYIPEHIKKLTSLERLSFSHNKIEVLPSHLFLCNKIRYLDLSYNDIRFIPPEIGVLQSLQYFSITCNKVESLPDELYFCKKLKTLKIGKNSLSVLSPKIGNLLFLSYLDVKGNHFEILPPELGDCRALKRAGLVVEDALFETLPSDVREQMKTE

Row | Substance | binding [1] | binding [2] | also measured
1 | GFP-LRRC8D (human LRRC8D with GFP fused to its N-terminus) (from UniProt P42212 1-238; Q7L1W4 1-858) | binds | binds | –
2 | GFP-LRRC8E (human LRRC8E with GFP fused to its N-terminus) (from UniProt P42212 1-238; Q6NSJ5 1-796) | binds | binds | –
3 | Epitope (myc)-tagged LRRC8E (from UniProt Q6NSJ5 1-796) | – | – | binding [3]: binds; binding [4]: binds
4 | GFP-LRRC8B (human LRRC8B with GFP fused to its N-terminus) (from UniProt P42212 1-238; Q6P9F7 1-803) | binds | binds | –
5 | Epitope (myc)-tagged LRRC8C (from UniProt Q8TDW0 1-803) | – | – | binding [5]: binds; binding [6]: binds

Reference: patent publication US20150253303A1 (FORSCHUNGSVERBUND BERLIN E V, published 2015)
